Reference: patent US4315018A, “Specific parasiticidal use of 2-benzamido-5-nitro-thiazole derivatives” (priority 1978, dated 1982)

Assay: Necropsy observations in treated lambs
Format: in vivo
Details: at necroscopy
Description: Seven lambs (Group 1, black) were given a single 100 mg/kg of body weight dose of the test material dissolved in a mixture of water and gum syrup (0.5 ml/kg of body weight) orally administered with a syringe.
Seven lambs (Group 2, red) were given a single 50 mg/kg of body weight dose of the test material dissolved in a mixture of water and gum syrup (0.5 ml/kg of body weight) orally administered with a syringe.
48 hours after treatment, necroscopies were performed.

With `CC(=O)Oc1ccccc1C(=O)Nc1ncc([N+](=O)[O-])s1` [PH 5776, 2-(2'-acetoxy)-benzamido-5-nitro-thiazole] the “Coloration of the content of the rumen” value (Group 1 lamb number 6, 100 mg/kg) was “highly colored yellow” and the “Coloration of the content of the rumen” value (Group 2 lamb number 5, 50 mg/kg) was “highly colored yellow”.
